Measured values as given in PubChem BioAssay AID2685 (National Center for Advancing Translational Sciences (NCATS), 2010).
Some of the results follow. These are further read-outs of the screen, such as a control signal, another cell line or another target. No call is given for them. Most of these compounds were active or inconclusive in the main read-out, so they are no random draw. The note in brackets gives the kind of curve behind each potency; many fits are weak.

Experiment: qHTS Assay for Lipid Storage Modulators in Drosophila S3 Cells;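 on cell number change: cells counted by Cell Tracker Red CMTPX staining in the red channel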
Conditions: BODIPY lipid droplet fluorescence, 18-24 h; for cell number change: measured here: cell count max response, cells fed with added oleic acid
Summary of the method: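 Laser-scanning cytometry quantifies lipid droplet accumulation (500–530 nm total intensity; droplet/cell object ratio) in oleic acid-fed (400 uM added) Drosophila S3 cells treated with a concentration series. 20 uM Triacsin C defined 100% inhibition.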

[1] = measured here: cell number channel AC50, cells fed with added oleic acid
[2] = measured here: lipid fluorescence (Fed channel) AC50, cells fed with added oleic acid

SMILES | cell number change [%] | AC50 [1] | AC50 [2]
Cn1c(N)c(C(=O)COC(=O)c2cc(C(F)(F)F)nc3ccccc23)c(=O)n(Cc2ccccc2)c1=O | 32.9 | 9.2 µM [rising, partial curve, poor fit] | 8.2 µM [rising, partial curve, poor fit]
Cc1ccc(C(=O)N2CCC(C)CC2)cc1NC1=NC2CS(=O)(=O)CC2S1 (stereo unspecified) | 18.3 | 0.146 µM [rising, full curve, poor fit] | 23.1 µM [rising, single point]
O=C(N/N=C/c1ccc(OC(F)F)cc1)c1ccc(CSc2nc3ccccc3[nH]2)cc1 | 5.13 | – | 9.2 µM [rising, partial curve]
O=C(CCn1c(=O)oc2ccc(Cl)cc21)N1CCN(c2ccccc2)CC1 | 21.8 | – | –
C=CCNC(=S)NNC(=O)c1ccc(OCC(C)C)cc1 | 29.5 | – | 2.31 µM [rising, partial curve]
Cc1ccc(Cl)cc1NC(=O)Cn1nc(-c2cccs2)ccc1=O | 17.6 | 1.64 µM [rising, partial curve] | –
COc1ccc(CCN2CN(S(=O)(=O)c3ccc(C)cc3)c3nc4ccccc4nc32)cc1OC | 11 | – | 2.59 µM [rising, partial curve]
COc1ccc(NS(=O)(=O)c2ccc(NC(=S)NC(=O)CC(C)C)cc2)cc1 | -3.44 | – | 8.2 µM [rising, partial curve]
CCOC(=O)C1=NN(c2ccc(C)cc2)CC1C(=O)OC (stereo unspecified) | 11.8 | – | –
O=C1CCc2cc(S(=O)(=O)N3CCCC3C(=O)N3CCN(c4ccccc4)CC3)ccc2N1 (stereo unspecified) | – | 1.3 µM [falling, single point] | 1.16 µM [falling, partial curve]
Cc1cc(C(=O)N2CCN(c3ccc(F)cc3)CC2)on1 | 4.61 | – | 0.651 µM [rising, full curve]
COCCn1nnnc1CN(Cc1ccco1)Cc1cc2cc3c(cc2[nH]c1=O)OCO3 | -44 | 0.0366 µM [falling, full curve, poor fit] | 0.0058 µM [falling, full curve]
CN(C)Cc1c(C(=O)N/N=C/c2ccoc2)nnn1-c1nonc1N | 24.2 | 0.00461 µM [rising, full curve, poor fit] | –
CCN(CC)c1ccc(NC(=O)CN2CCN(CC(=O)Nc3ccccc3F)CC2)cc1 | -68.3 | 29.1 µM [falling, partial curve, poor fit] | –
Cc1sc2ncnc(SC(C)C#N)c2c1C (stereo unspecified) | -23.8 | – | –
COc1cc(/C=C2\NC(=S)N(C)C2=O)ccc1OCc1cccc(F)c1 | 2.84 | – | –
CCC(C)(C)N1CC(=O)N(Cc2ccccc2)C(c2ccc(OC)cc2)C1=O (stereo unspecified) | 17.7 | – | 13 µM [rising, single point]
CC(CN1CCN(C)CC1)OC(=O)c1cccc(F)c1 (stereo unspecified) | 11.7 | – | 29.1 µM [rising, single point]
O=C(CN1CCN(C(=O)c2cccc(-n3cnnn3)c2)CC1)Nc1ccccc1Cl | 32.1 | 29.1 µM [rising, single point] | 1.64 µM [falling, partial curve]
CC1=C(C(=O)OCc2ccc3c(c2)OCO3)C(c2ccccc2)NC(=O)N1 (stereo unspecified) | – | – | 0.103 µM [rising, full curve]
CCc1nnc(NC(=O)c2ccc(COc3ccc(C)cc3)o2)s1 | – | 2.06 µM [rising, partial curve] | –

SMILES | cell number change [%] | AC50 [1] | AC50 [2]
COc1ccc(OCC(O)Cn2c(Br)nc3c2c(=O)[nH]c(=O)n3C)cc1 (stereo unspecified) | – | – | 2.91 µM [rising, partial curve]
CCN1CCCC1CNC(=O)c1cc2c(=O)n(C)c3ccccc3c2n1C (stereo unspecified) | 33.6 | 0.259 µM [rising, full curve, poor fit] | –
COc1ccc(N2CCN(C(=O)c3ccc(SC)cc3OC)CC2)cc1 | 23.7 | 0.116 µM [falling, full curve, poor fit] | –
CC(C)N1C(=O)CCC1C(=O)N1CCC(Cc2ccccc2)CC1 (stereo unspecified) | 3.2 | – | 9.2 µM [falling, partial curve]
O=C(NC1CCCC1)C(c1ccc(Cl)cc1)N1CCN(C2CCCCC2)CC1 (stereo unspecified) | 27.6 | – | –
Cc1sc(NC(=O)C2CCCC2)c(C#N)c1C | -0.874 | – | 16.4 µM [rising, single point]
Cc1ccc(-c2noc(CNCCCN(C)C)n2)cc1 | -16.7 | 0.082 µM [falling, full curve, poor fit] | 0.13 µM [falling, full curve, poor fit]
Cc1cc(C)c(S(=O)(=O)N(C)CC(=O)NC2CCCC2)c(C)c1 | 18.7 | – | 29.1 µM [rising, single point]
COCCN(C(=O)c1snc(C(N)=O)c1N)C(C(=O)NC1CCCC1)c1cc(OC)c(OC)c(OC)c1 (stereo unspecified) | 5.88 | – | 2.31 µM [rising, full curve, poor fit]
Cn1cc(C(=O)NCC2COc3ccccc3O2)c(=O)c2cc(S(=O)(=O)N3CCCCC3)ccc21 (stereo unspecified) | 24.8 | 0.517 µM [rising, full curve] | 1.84 µM [rising, partial curve]
COc1ccc(NC(C)=O)cc1C#N | 50.6 | – | 0.651 µM [rising, partial curve, poor fit]
C/C(CCc1oc2c(Br)cc(Br)cc2c1-c1ccc(C)o1)=N\O | -41.5 | 29.1 µM [falling, single point] | 32.6 µM [falling, single point]
C/C(=N/NC(=O)CNC(=O)Cc1ccccc1)c1ccco1 | 2.98 | – | –
CCOC(=O)Cn1cc(-c2ccccc2)nn1 | -62.8 | 3.26 µM [falling, full curve] | 6.51 µM [falling, full curve]
O=C1N/C(=C/c2cccn2-c2ccc(F)cc2)C(=O)N1Cc1ccccc1 | 2.03 | 3.66 µM [rising, single point] | 23.1 µM [rising, partial curve]
CCCc1cc(=O)[nH]c(SCC(=O)N(Cc2ccccc2)C(C)C)n1 | -13.9 | 6.51 µM [falling, single point] | –
CC(=O)Nc1cccc(NC(=O)c2ccc3c(c2)CCN3S(=O)(=O)c2ccccc2)c1 | -13.8 | – | –
C=CCN1C=C2C(=O)C(C)(OC(=O)c3cccs3)C(=O)C=C2C=C1CCCC(=O)OC (stereo unspecified) | 13.1 | – | 13 µM [rising, single point]
COc1cc(/C=N/NC(=O)CCC(=O)NC2CCCCC2)ccc1C | 24.3 | – | –
O=C1C2CC=C(Cl)CC2C(=O)N1CCc1c[nH]c2ccccc12 (stereo unspecified) | – | 2.91 µM [rising, partial curve] | 0.231 µM [rising, full curve, poor fit]
CC(=O)c1ccc(Sc2ccc(C(C)=O)cc2)cc1 | 12.7 | – | 29.1 µM [rising, single point]

SMILES | cell number change [%] | AC50 [1] | AC50 [2]
CC(C)CCNC(=O)C(c1ccc(O)cc1)N(Cc1ccco1)C(=O)CCC(=O)Nc1nccs1 (stereo unspecified) | 6.52 | – | –
CC1CCN(C(=O)CSc2ccc(-c3cccnc3)nn2)CC1 | -15.2 | 2.31 µM [rising, partial curve] | –
CCOC(=O)COc1cccc2c(=O)n(CC(=O)NCc3ccccc3)ccc12 | -11.1 | – | 3.66 µM [rising, single point]
COc1ccc(-c2cccc(NC(=O)c3ccc4c(c3)OCO4)c2)nn1 | 16.8 | – | 2.59 µM [rising, partial curve]
CC(C)(C)c1ccc(C(=O)NCC(=O)N2CCNC(=O)C2)cc1 | 25.6 | – | 29.1 µM [rising, single point]
COc1ccc(CN(Cc2nc3ccccc3c(=O)[nH]2)C(=O)C(C)(C)C)cc1 | 9.41 | – | 2.91 µM [rising, partial curve, poor fit]
CN(C)CCNC(C(=O)Nc1cccc(C(F)(F)F)c1)c1ccccc1 (stereo unspecified) | -35.9 | – | 0.164 µM [falling, full curve, poor fit]
CCCC(C(=O)NC1CCCC1)N(CCN(CC)CC)C(=O)c1snc(C(N)=O)c1N (stereo unspecified) | 9.21 | – | –
Cc1ccc(CSc2ccc3nnc(-c4ccccn4)n3n2)cc1 | -25.2 | – | 0.82 µM [falling, full curve]
CC(=O)c1ccc(NC(=S)NC2CCCC(C)C2C)cc1 (stereo unspecified) | 17.2 | – | 0.231 µM [falling, full curve]
CCOC(=O)C1=C(C)NC(=O)NC1c1ccc2c(c1)OCO2 (stereo unspecified) | – | 2.91 µM [rising, partial curve] | –
Cc1[nH]nc2c1C(c1ccsc1C)C(C#N)=C(N)O2 (stereo unspecified) | 3.69 | – | –
N#Cc1c2n(c(=S)n(-c3ccc(F)cc3)c1=O)CCCCC2 | 12.5 | – | 16.4 µM [rising, single point]
Cc1ccc(NC(=O)COc2ccc3c(c2)CCC3)nc1 | 3.37 | 0.0517 µM [falling, full curve, poor fit] | –
Cn1c(C(=O)O)cc2cc(F)ccc21 | 16.7 | – | 6.51 µM [falling, single point]
O=C(COc1ccc(Cl)cc1)NCc1nnc(SCC(=O)N2CCCc3ccccc32)o1 | -1.04 | – | 0.326 µM [rising, single point]
O=S(=O)(Nc1nc2ccccc2nc1NCCN1CCOCC1)c1cccc(Cl)c1 | 1.95 | – | –
COC(=O)C(C)NC(=O)C12CC3CC(CC(C3)C1)C2 (stereo unspecified) | -52.1 | 29.1 µM [falling, single point] | 29.1 µM [falling, single point]
O=C(CSc1nc2ccccc2s1)N/N=C/c1ccc(C(=O)O)cc1 | 9.13 | – | 0.082 µM [falling, full curve, poor fit]

Quoted at random: 2 entries already listed.
SMILES | cell number change [%] | AC50 [1] | AC50 [2]
CC1CCN(C(=O)CSc2ccc(-c3cccnc3)nn2)CC1 | -15.2 | 2.31 µM [rising, partial curve] | –
Cc1sc2ncnc(SC(C)C#N)c2c1C (stereo unspecified) | -23.8 | – | –
